Results reported in US20170342133A1.
Positions count from the first letter of the chain named. These are yes or no findings as the source states them, for the method shown. Some results given as binding are weak or reduced against the parent protein; the word gives no strength.

Target: MG10-GST fusion protein (human) (UniProt P40238)
Experiment: affinity chromatography on immobilized MG10-GST fusion protein

B1: hVB22B u2-wz4(v1) sc(Fv)2 (scFv)
scFv: QVQLVQSGPEVKKPGASVKVSCKASGYTFTNSWMNWVRERPGKGLEWIGRIYPGDGETIYNGKFRVRVTITADESTSTAYMQLSSLRSEDTAVYYCARGYDDYSFAYWGQGTTVTVSSGGGGSGGGGSGGGGSDIVMTQSPLSLPVTPGEPASISCRSSKSLLHSNGNTYLYWFLEKPGQSPQLLIYRMSNLASGVPDRFSGSGSGTDFTLKISRVEAEDVGVYYCMQHIEYPFTFGQGTKLEIKGGGGSGGGGSGGGGSQVQLVQSGPEVKKPGASVKVSCKASGYTFTNSWMNWVRKRPGKGLEWIGRIYPGDGETIYNGKFRVRVTITADESTSTAYMQLSSLRSEDTAVYYCARGYDDYSFAYWGQGTTVTVSSGGGGSGGGGSGGGGSDIVMTQSPLSLPVTPGEPASISCRSSKSLLHSNGNTYLYWFLKKPGQSPQLLIYRMSNLASGVPDRFSGSGSGTDFTLKISRVEAEDVGVYYCMQHIEYPFTFGQGTKLEIK
  binding: binds

B2: hVB22B u2-wz4(v3) sc(Fv)2 (scFv)
scFv: B1 scFv with E176K, K436E
  binding: binds
